Results on 1 compound are retold here after US20060276416A1, “Methods and compositions for treating flushing and drug induced weight gain” (Sirtris Pharmaceuticals, Inc., priority 2005, published 2006).

Format in all cases: in vivo
The test system of series [1] is C. elegans. As to the kind of experiment: C. elegans fecundity assay.
The test system of series [2] is C. elegans. As to the kind of experiment: C. elegans feeding rate (pharyngeal pumping).
In another series the test system is D. melanogaster. As to the kind of experiment: D. melanogaster feeding (crop-filling assay) and body mass.

Turning to `Oc1ccc(/C=C/c2cc(O)cc(O)c2)cc1` [Resveratrol, 3,5,4′-Trihydroxy-trans-stilbene], the “Fecundity of adult hermaphrodites” value in the series on C. elegans [1] (100 μM, controls 106) worked out at 99 eggs/5 worms/5 hours. Besides, in the series with C. elegans [1] (resveratrol treatment), the “Fecundity (in words)” value is “no decrease”. For the same compound, the Feeding rate in the series on C. elegans [2] (Adult on dead OP50, 100 μM, control 228±26.2) is on record as 283±31.9 pumps/min; in the series on C. elegans [2] (Adult on live OP50, 100 μM, control 383±16.0), 383±22.7 pumps/min; in the series with C. elegans [2] (L4 on live OP50, 100 μM, control 310±10.2) it was 315±9.8 pumps/min. Moreover, the “Feeding rates (in words)” value in the series on C. elegans [2] (L4 larval and adult worms) is “no differences”. Further, in the series on D. melanogaster (10 μM, 15% SY diet), the Body weight entry is on record as “maintained normal weight”. Also, the Food uptake result in the series on D. melanogaster (resveratrol-fed flies) is recorded as “no decrease”.
